The list shows a part of the results. Shown are side measurements of this screen, not its main read-out; they come without a call. Most of these compounds were active or inconclusive in the main read-out, so they are no random draw. The note in brackets gives the kind of curve behind each potency; many fits are weak.
Assay: qHTS Assay for Lipid Storage Modulators in Drosophila S3 Cells;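 as to cell number change: cells counted by Cell Tracker Red CMTPX staining in the red channel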
Settings: BODIPY lipid droplet fluorescence, 18-24 h; for cell number change: measured here: cell count max response, cells fed with added oleic acid
Method in brief: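 Laser-scanning cytometry quantifies lipid droplet accumulation (500–530 nm total intensity; droplet/cell object ratio) in oleic acid-fed (400 uM added) Drosophila S3 cells treated with a concentration series. 20 uM Triacsin C defined 100% inhibition.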

[1] = measured here: cell number channel AC50, cells fed with added oleic acid
[2] = measured here: lipid fluorescence (Fed channel) AC50, cells fed with added oleic acid

For `Cc1nn(-c2ccccc2)c2c1C(c1ccc(O)c(O)c1)N1C(=N2)C(Nc2ccccc2)=Nc2ccccc21` (stereo unspecified), the cell number change was -65.1%, the AC50 [1] was 25.9 µM [falling, partial curve] and the AC50 [2] was 25.9 µM [falling, partial curve].

In the case of `Cc1ccc(O)c(-c2cc(-c3ccccc3F)[nH]n2)c1`, the cell number change is reported as -27.5% and the AC50 [2] is reported as 4.11 µM [falling, partial curve].

For `Cc1cccc(OCCCC(=O)Nc2ccc(S(=O)(=O)Nc3nccs3)cc2)c1C`, the cell number change was -24.3% and the AC50 [1] was 0.82 µM [rising, full curve].

In the case of `Cc1nc2ccccc2cc1OCc1ccc(Cl)cc1`, the cell number change is reported as -15.7% and the AC50 [2] is reported as 23.1 µM [falling, partial curve].

In the case of `OCCN(Cc1ccccc1)CC1CC2C=CC1C2` (stereo unspecified), the AC50 [2] is reported as 0.092 µM [falling, full curve, poor fit].

With `O=[N+]([O-])c1ccc(CSC2=NCCS2)cc1` the cell number change was -18.6% and the AC50 [2] was 9.2 µM [falling, single point].

With `CCN(Cc1ccccc1)C(=O)c1ccc(NC(=O)c2ccc(OC)cc2)cc1` the cell number change was -50.5%, the AC50 [1] was 10.3 µM [falling, partial curve, poor fit] and the AC50 [2] was 29.1 µM [falling, single point].

In the case of `COC(=O)C(C)NC(=O)COc1ccc2ccccc2c1` (stereo unspecified), the cell number change is reported as -26.5% and the AC50 [2] is reported as 8.2 µM [falling, partial curve].

In the case of `O=C(N/N=C/c1ccncc1)c1cccc([N+](=O)[O-])c1`, the cell number change is reported as 17.4% and the AC50 [2] is reported as 4.11 µM [rising, full curve, poor fit].

With `CC(=O)Nc1cccc(NC(=O)c2ccccc2OCc2ccccc2)c1` the AC50 [2] was 0.13 µM [falling, full curve].

For `COc1cc2c(cc1NC(=S)NC(=O)/C=C/c1ccco1)oc1ccccc12`, the cell number change was -49.9% and the AC50 [1] was 4.61 µM [falling, full curve].

With `COC(=O)/C=C1/S/C(=N/NC(=O)c2ccccc2OC)NC1=O` the cell number change was -8.73% and the AC50 [2] was 5.8 µM [rising, full curve].

In the case of `Cc1cc(CN(C)C(=O)c2ccc(OC3CCN(Cc4ccccn4)CC3)cc2)on1`, the cell number change is reported as -1.65% and the AC50 [2] is reported as 0.116 µM [falling, single point].

In the case of `CC(=O)Oc1ccc(N2C(=O)C3C4C=CC(O4)C3C2=O)cc1` (stereo unspecified), the cell number change is reported as -35.3%, the AC50 [1] is reported as 29.1 µM [falling, single point] and the AC50 [2] is reported as 29.1 µM [falling, single point].

In the case of `COc1cc(/C=N/NS(=O)(=O)c2ccc(Br)cc2)ccc1O`, the AC50 [2] is reported as 14.6 µM [rising, partial curve].

For `COCCNC(=O)c1csc(Nc2cccc3ccccc23)n1`, the cell number change was -22% and the AC50 [2] was 18.4 µM [falling, single point].

Compound `O=C(Nc1ccncc1)c1cc(-c2ccccn2)nc2ccc(Br)cc12` has a cell number change of 161%.

In the case of `COc1cccc(C(=O)Cn2c(Br)nc3c2c(=O)n(C)c(=O)n3C)c1`, the cell number change is reported as 32.1%, the AC50 [1] is reported as 29.1 µM [rising, single point] and the AC50 [2] is reported as 20.6 µM [rising, single point].

For `COCC1CCN(C(=O)c2cc(COc3ccc(C)c(C)c3)on2)C1` (stereo unspecified), the cell number change was 11.3% and the AC50 [2] was 2.31 µM [rising, partial curve, poor fit].

With `Clc1ccccc1C1=Nn2c(nnc2-c2ccncc2)SC1` the cell number change was -18.7% and the AC50 [2] was 0.092 µM [falling, full curve, poor fit].

In the case of `COc1ccc(/C(O)=C2/C(=O)C(=O)N(c3ncccn3)C2c2ccc(F)cc2)cc1` (stereo unspecified), the cell number change is reported as -49.8%.

With `O=S(=O)(NCC(c1ccc2c(c1)OCO2)N1CCOCC1)c1ccc(Br)cc1` (stereo unspecified) the cell number change was 43.7%, the AC50 [1] was 20.6 µM [rising, partial curve] and the AC50 [2] was 0.103 µM [rising, full curve, poor fit].

With `CCN1CCN(C(=O)c2ccc(CN(c3ccccc3)S(=O)(=O)c3ccccc3)cc2)CC1` the AC50 [1] was 2.91 µM [rising, single point].

With `COc1ccc(-c2nn3c(C4CCCCC4)nnc3s2)cc1OC` the AC50 [1] was 0.731 µM [falling, single point] and the AC50 [2] was 1.03 µM [falling, single point].

With `O=C(CCn1c(=O)oc2cc(Cl)ccc21)Nc1ccc(N2CCOCC2)cc1` the cell number change was -31.4%, the AC50 [1] was 0.058 µM [falling, full curve, poor fit] and the AC50 [2] was 6.51 µM [rising, single point].

For `COc1ccc(C(=O)C[n+]2cccc3cc(C)ccc32)cc1`, the cell number change was -17.1% and the AC50 [2] was 16.4 µM [falling, single point].

In the case of `O=C(CSc1nnc(-c2ccco2)n1Cc1ccccc1)c1ccc(F)cc1`, the cell number change is reported as 1.1% and the AC50 [2] is reported as 25.9 µM [rising, partial curve].

In the case of `COc1ccc(-c2csc(NC(=O)C(CC(=O)O)N3CCOCC3)n2)cc1` (stereo unspecified), the cell number change is reported as 1.92% and the AC50 [2] is reported as 29.1 µM [rising, single point].

For `Cc1ccc(S(=O)(=O)/N=c2\sccn2C)cc1`, the cell number change was -31.9% and the AC50 [1] was 32.6 µM [falling, partial curve, poor fit].

`O=C(NCCc1cccs1)C1CC(c2ccccc2[N+](=O)[O-])=NO1` (stereo unspecified) gave a cell number change of -12%.

For `COc1ccccc1NC(=O)c1ccc2c(c1)C(=O)N(c1ccccc1OC)C2=O`, the cell number change was -22.3% and the AC50 [2] was 14.6 µM [falling, single point].

With `O=C(CSc1nnc2c(n1)[nH]c1ccccc12)Nc1ccc(N2CCOCC2)cc1` the cell number change was 9.64%.

In the case of `CSc1ccc(OC2CCCCC2NS(=O)(=O)c2ccc(Cl)cc2)cc1` (stereo unspecified), the cell number change is reported as 30.3% and the AC50 [1] is reported as 4.11 µM [rising, partial curve, poor fit].

In the case of `COc1ccc(CN2CCCC(CNC(=O)c3ccc(F)cc3)C2)cc1OC` (stereo unspecified), the cell number change is reported as -41.4%, the AC50 [1] is reported as 5.8 µM [falling, full curve] and the AC50 [2] is reported as 8.2 µM [falling, partial curve, poor fit].

For `O=C(CSc1cn(Cc2ccccc2)c2ccccc12)Nc1nccs1`, the cell number change was -9.17% and the AC50 [1] was 0.184 µM [rising, partial curve].

With `CC(=O)c1ccc(N2CCN(C(=O)c3cc4c(-c5ccccc5F)nn(C)c4s3)CC2)cc1` the AC50 [1] was 6.51 µM [rising, single point] and the AC50 [2] was 7.31 µM [rising, partial curve, poor fit].

For `CC(=O)Nc1ccc(C(=O)OCC(=O)N(c2ccccc2)C2CCS(=O)(=O)C2)cc1` (stereo unspecified), the cell number change was 6.33% and the AC50 [2] was 0.00461 µM [rising, full curve].

With `CCc1ccc(C(=O)COC(=O)CNC(=O)C2CCCCC2)cc1` the cell number change was 27.9% and the AC50 [1] was 0.461 µM [falling, single point].

For `CC1(C)CC(=O)C(C=NCCc2ccccn2)=C(O)C1`, the cell number change was 3.04% and the AC50 [2] was 0.651 µM [falling, partial curve, poor fit].

For `c1ccc(CNc2nc3ccccc3[nH]2)cc1`, the cell number change was -18.2% and the AC50 [1] was 6.51 µM [falling, single point].

With `CN(CCC1CCOCC1)C(=O)CC1C(=O)NCCN1C/C=C/c1ccccc1` (stereo unspecified) the cell number change was -21.7% and the AC50 [2] was 0.164 µM [falling, partial curve, poor fit].

In the case of `O=C(c1cc2nc(-c3ccccc3)cc(-c3ccccc3)n2n1)N1CCN(C(=O)c2ccco2)CC1`, the cell number change is reported as 4.51%, the AC50 [1] is reported as 1.64 µM [rising, partial curve] and the AC50 [2] is reported as 0.731 µM [rising, partial curve].

Compound `O=C1NCCCN1Cc1ccc(F)cc1Cl` has a cell number change of 12.6%.

For `O=C(Nc1cccc(S(=O)(=O)N2CCCCC2)c1)c1ccco1`, the cell number change was 3.09% and the AC50 [2] was 6.51 µM [rising, single point].

In the case of `CC(=O)Nc1ccc2nc(CN3CCN(Cc4ccc(F)cc4)C(CCO)C3)ccc2c1` (stereo unspecified), the cell number change is reported as 17.3% and the AC50 [2] is reported as 29.1 µM [rising, single point].

With `CC(NC(=O)c1ccccc1NC(=O)CSc1nnnn1C)c1ccccc1` (stereo unspecified) the cell number change was 19.6% and the AC50 [2] was 4.61 µM [falling, single point].

In the case of `CCC(C)(C)NC(=O)C(c1ccc(O)cc1)N(C(=O)Cn1nnc2ccccc21)c1ccc(NC(C)=O)cc1` (stereo unspecified), the cell number change is reported as -7.33% and the AC50 [2] is reported as 6.51 µM [falling, single point].

In the case of `Cc1ccc(C(=O)COC(=O)c2ccncc2)cc1[N+](=O)[O-]`, the cell number change is reported as -12% and the AC50 [2] is reported as 0.00411 µM [rising, full curve, poor fit].

For `NC(=O)c1ccccc1N/C=C/C(=O)c1ccc(Cl)cc1`, the cell number change was -22.4% and the AC50 [2] was 10.3 µM [rising, single point].

For `Cc1ccc(C(=O)NC(=S)N2CCCCCC2)cc1`, the cell number change was 17% and the AC50 [2] was 0.146 µM [falling, full curve, poor fit].

With `COc1cc2cc(CCCOC(=O)c3ccc(Br)cc3)oc(=O)c2cc1OC` the cell number change was -13.1% and the AC50 [2] was 0.517 µM [rising, partial curve].

For `CN(Cc1ccccc1)C(=O)COC(=O)c1ccc(S(=O)(=O)N(C)C)cc1`, the cell number change was 83.8% and the AC50 [1] was 14.6 µM [rising, partial curve].

In the case of `O=C(Nc1cccc(-c2nc3ncccc3o2)c1)c1ccco1`, the cell number change is reported as 59.7%, the AC50 [1] is reported as 1.3 µM [rising, full curve] and the AC50 [2] is reported as 2.91 µM [rising, partial curve].

With `CN(C)c1ccc(NC(=O)CN2CCc3ccccc3C2)cc1` the cell number change was 8.87%.

In the case of `Cc1cc(C)c(NC(=O)CS(=O)CC(=O)Nc2cccnc2)c(C)c1` (stereo unspecified), the cell number change is reported as -10.6% and the AC50 [2] is reported as 0.82 µM [rising, full curve, poor fit].

Work on `COc1ccc(NC(=O)c2cccc(C(=O)Nc3ccc(OC)cc3)n2)cc1` yielded a cell number change of 6.37%.

In the case of `Cc1cc2cccc(C)c2nc1SCC(=O)NNC(=O)c1ccco1`, the cell number change is reported as 1.94%.

Work on `Cc1ccc(CN(c2ccc(C(=O)N3CCCC3)cc2)S(C)(=O)=O)cc1` yielded a cell number change of -5.1%.

In the case of `Cc1cccc(NC(=O)c2ccc(NCCc3ccccc3)c([N+](=O)[O-])c2)c1`, the AC50 [2] is reported as 18.4 µM [falling, partial curve].

In the case of `CC1(C2(O)CC(c3ccccc3)ON2)CCCCC1` (stereo unspecified), the cell number change is reported as -74.3%, the AC50 [1] is reported as 4.11 µM [falling, full curve] and the AC50 [2] is reported as 20.6 µM [falling, single point].

Reference: PubChem BioAssay AID2685 (National Center for Advancing Translational Sciences (NCATS), 2010)
